Results are given in words; binding and its absence hold for the method and conditions named. In cells and extracts the contact can be indirect. Tags and fused reporters may be left off the sequences shown.

Our source for the binding values is PMC9763856.

The target of this test is GST-SMAD1 linker region. Description: pull-down; GST fusion proteins expressed by bacteria incubated with lysates of HEK293T cells transfected with Flag-TAPT1; only the target purified.

B1: Flag-tagged TAPT1 (human Transmembrane anterior posterior transformation 1) (protein, UniProt Q6NXT6 1-567)
chain: MAGVGDAAAPGEGGGGGVDGPQRDGRGEAEQPGGSGGQGPPPAPQLTETLGFYESDRRRERRRGRTELSLLRFLSAELTRGYFLEHNEAKYTERRERVYTCLRIPRELEKLMVFGIFLCLDAFLYVFTLLPLRVFLALFRLLTLPCYGLRDRRLLQPAQVCDILKGVILVICYFMMHYVDYSMMYHLIRGQSVIKLYIIYNMLEVADRLFSSFGQDILDALYWTATEPKERKRAHIGVIPHFFMAVLYVFLHAILIMVQATTLNVAFNSHNKSLLTIMMSNNFVEIKGSVFKKFEKNNLFQMSNSDIKERFTNYVLLLIVCLRNMEQFSWNPDHLWVLFPDVCMVIASEIAVDIVKHAFITKFNDITADVYSEYRASLAFDLVSSRQKNAYTDYSDSVARRMGFIPLPLAVLLIRVVTSSIKVQGILSYACVILFYFGLISLKVLNSIVLLGKSCQYVKEAKMEEKLSNPPATCTPGKPSSKSQNKCKPSQGLSTEENLSASITKQPIHQKENIIPLLVTSNSDQFLTTPDGDEKDITQDNSELKHRSSKKDLLEIDRFTICGNRID
Take B1: the binding result is reported as “no binding”.
